# Test results reported in publication PMC12656327 (Pharmaceutics, 2025).
# Assay: NO release, Griess assay (phosphate buffer pH 7.4 with L-cysteine)
# Type: physicochemical
# Details: for Fold Change 24 h/1 h: ratio of NO released 24 h/1 h; for Fold Change 48 h/1 h: ratio of NO released 48 h/1 h; for Fold Change 48 h/24 h: ratio of NO released 48 h/24 h
Compound,Fold Change 24 h/1 h,Fold Change 48 h/1 h,Fold Change 48 h/24 h
O=[N+]([O-])c1ccc(-c2nc(-c3no[n+]([O-])c3-c3noc(-c4ccc([N+](=O)[O-])cc4)n3)no2)cc1 [2b],1.2,1.3,1.0
COc1ccc(-c2nc(-c3no[n+]([O-])c3-c3noc(-c4ccc(OC)cc4)n3)no2)cc1 [2i],1.0,1.2,1.1
[O-][n+]1onc(-c2noc(-c3ccccc3Cl)n2)c1-c1noc(-c2ccccc2Cl)n1 [2k],1.1,1.2,1.0
[O-][n+]1onc(-c2noc(-c3ccccc3)n2)c1-c1noc(-c2ccccc2)n1 [2e],1.2,1.3,1.1
O=[N+]([O-])c1ccccc1-c1nc(-c2no[n+]([O-])c2-c2noc(-c3ccccc3[N+](=O)[O-])n2)no1 [2d],1.3,1.3,1.0
[O-][n+]1onc(-c2noc(-c3ccncc3)n2)c1-c1noc(-c2ccncc2)n1 [2f],1.3,1.5,1.1
COc1ccc(-c2nc(-c3no[n+]([O-])c3-c3noc(-c4ccc(OC)c(OC)c4)n3)no2)cc1OC [2j],1.1,1.1,1.1
O=[N+]([O-])c1cccc(-c2nc(-c3no[n+]([O-])c3-c3noc(-c4cccc([N+](=O)[O-])c4)n3)no2)c1 [2c],1.3,1.7,1.3
Cc1ccc(-c2nc(-c3no[n+]([O-])c3-c3noc(-c4ccc(C)cc4)n3)no2)cc1 [2h],1.4,1.5,1.1
